Assay results taken from paper PMC12016931.
Results are given in words; binding and its absence hold for the method and conditions named. Binding seen in cells or lysates may run through a third protein. Some entries that bind do so weakly or less than the wild type.

Chains of the proteins cited; added tags and fusions are not shown.
UniProt P21728: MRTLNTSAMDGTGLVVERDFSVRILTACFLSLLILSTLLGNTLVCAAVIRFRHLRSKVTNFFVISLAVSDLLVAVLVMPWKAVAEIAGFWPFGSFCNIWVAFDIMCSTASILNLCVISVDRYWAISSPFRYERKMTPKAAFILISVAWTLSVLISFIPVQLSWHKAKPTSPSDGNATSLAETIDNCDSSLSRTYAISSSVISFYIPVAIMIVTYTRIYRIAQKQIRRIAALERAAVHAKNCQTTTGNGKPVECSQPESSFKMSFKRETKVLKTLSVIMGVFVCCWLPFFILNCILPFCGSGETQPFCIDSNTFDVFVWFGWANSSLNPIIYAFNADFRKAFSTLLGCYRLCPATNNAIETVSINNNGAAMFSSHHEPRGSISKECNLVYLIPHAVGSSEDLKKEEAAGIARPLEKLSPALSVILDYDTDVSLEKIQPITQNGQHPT

Experiments:
[1] = biological target: T1, JIP3, endogenous wild type of control cells (human (endogenous in control fibroblasts and CRISPR control iPSC-derived neurons)) (UniProt Q9UPT6); assay: co-IP; cell lysates precipitated with JIP3 antibody; D1 and JIP3 by Western blot with D1 and JIP3 antibodies; Figure 5 is on CRISPR control and patient iPSC-derived neurons
T1 sequence: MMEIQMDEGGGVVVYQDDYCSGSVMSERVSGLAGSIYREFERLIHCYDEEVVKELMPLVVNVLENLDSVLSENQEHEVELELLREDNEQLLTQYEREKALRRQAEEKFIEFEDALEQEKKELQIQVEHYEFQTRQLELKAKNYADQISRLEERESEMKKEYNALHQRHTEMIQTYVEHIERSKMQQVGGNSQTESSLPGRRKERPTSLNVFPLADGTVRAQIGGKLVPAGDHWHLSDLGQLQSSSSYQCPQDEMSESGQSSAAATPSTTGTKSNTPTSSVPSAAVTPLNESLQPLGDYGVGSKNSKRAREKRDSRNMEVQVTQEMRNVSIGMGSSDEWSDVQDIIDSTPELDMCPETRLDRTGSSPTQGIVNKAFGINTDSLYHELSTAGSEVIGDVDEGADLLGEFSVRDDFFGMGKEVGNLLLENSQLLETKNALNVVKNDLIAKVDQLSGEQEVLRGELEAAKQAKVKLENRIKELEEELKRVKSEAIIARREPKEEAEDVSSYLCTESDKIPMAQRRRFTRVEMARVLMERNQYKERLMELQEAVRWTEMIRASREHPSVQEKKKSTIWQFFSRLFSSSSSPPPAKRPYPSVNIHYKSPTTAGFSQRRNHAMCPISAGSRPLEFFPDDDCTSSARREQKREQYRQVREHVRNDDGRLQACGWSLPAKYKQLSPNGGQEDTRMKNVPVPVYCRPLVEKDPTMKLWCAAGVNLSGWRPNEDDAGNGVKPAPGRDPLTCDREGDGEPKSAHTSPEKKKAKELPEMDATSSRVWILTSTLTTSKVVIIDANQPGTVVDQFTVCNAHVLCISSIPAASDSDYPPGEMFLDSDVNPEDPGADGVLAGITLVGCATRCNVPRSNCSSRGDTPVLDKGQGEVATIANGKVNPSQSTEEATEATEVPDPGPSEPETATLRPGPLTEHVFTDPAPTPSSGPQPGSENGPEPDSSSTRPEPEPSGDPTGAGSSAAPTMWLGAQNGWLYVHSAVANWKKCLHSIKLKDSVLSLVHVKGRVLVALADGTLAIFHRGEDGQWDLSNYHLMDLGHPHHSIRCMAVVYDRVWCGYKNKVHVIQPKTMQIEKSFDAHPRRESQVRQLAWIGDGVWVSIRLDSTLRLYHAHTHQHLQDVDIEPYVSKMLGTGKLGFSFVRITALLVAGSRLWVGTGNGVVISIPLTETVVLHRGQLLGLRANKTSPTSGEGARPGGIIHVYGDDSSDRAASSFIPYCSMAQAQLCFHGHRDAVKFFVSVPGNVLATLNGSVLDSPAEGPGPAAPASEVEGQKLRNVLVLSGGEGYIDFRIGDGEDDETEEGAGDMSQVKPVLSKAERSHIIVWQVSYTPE

[2] = biological target: T2, MT-JIP3 (JIP3 R578C), endogenous in patient cells (human (endogenous in patient fibroblasts and patient iPSC-derived neurons)) (UniProt Q9UPT6); assay: as above
T2 sequence: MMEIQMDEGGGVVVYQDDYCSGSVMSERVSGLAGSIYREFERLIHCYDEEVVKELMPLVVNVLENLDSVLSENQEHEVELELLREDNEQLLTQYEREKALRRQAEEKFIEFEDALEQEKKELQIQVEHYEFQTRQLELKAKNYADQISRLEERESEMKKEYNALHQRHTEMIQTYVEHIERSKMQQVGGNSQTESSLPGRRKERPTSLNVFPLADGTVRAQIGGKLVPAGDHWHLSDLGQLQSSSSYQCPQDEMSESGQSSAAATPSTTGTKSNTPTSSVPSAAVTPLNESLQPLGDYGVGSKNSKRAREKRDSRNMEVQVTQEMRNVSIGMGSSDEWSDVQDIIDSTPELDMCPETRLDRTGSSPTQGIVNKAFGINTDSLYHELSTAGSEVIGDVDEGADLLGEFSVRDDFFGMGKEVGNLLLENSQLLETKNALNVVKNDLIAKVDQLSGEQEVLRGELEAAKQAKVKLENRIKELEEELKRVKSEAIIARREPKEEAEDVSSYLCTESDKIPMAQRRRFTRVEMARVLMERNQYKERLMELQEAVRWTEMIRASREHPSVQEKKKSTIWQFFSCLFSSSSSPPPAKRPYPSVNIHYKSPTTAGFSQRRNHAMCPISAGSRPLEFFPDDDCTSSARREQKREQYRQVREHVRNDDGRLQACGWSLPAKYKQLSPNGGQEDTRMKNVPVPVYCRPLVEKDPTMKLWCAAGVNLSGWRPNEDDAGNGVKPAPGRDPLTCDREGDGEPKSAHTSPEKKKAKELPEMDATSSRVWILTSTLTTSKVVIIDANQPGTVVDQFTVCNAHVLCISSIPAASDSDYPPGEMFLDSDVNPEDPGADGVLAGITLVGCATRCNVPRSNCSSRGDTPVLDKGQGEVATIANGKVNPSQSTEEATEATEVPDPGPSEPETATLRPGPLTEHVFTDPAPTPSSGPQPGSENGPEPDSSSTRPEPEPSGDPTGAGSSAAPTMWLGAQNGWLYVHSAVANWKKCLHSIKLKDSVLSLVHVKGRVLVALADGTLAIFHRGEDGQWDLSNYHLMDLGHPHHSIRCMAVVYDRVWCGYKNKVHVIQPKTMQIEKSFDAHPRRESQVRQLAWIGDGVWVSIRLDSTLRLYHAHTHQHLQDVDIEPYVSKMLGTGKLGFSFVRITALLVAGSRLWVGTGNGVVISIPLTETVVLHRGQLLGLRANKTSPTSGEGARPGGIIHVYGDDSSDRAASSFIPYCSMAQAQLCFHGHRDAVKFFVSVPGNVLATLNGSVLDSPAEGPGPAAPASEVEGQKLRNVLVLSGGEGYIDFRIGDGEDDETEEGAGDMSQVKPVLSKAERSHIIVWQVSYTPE

binding [1]: binds
binding [2]: binds
Substance: dopamine receptor 1 (D1) (from UniProt P21728 1-446)
